Reference: patent US20240361407A1, “SYSTEMS AND METHODS FOR GENERATION OF HYPERPOLARIZED MATERIALS” (priority 2021, published 2024)

How the values were obtained:
[1] = Thermal NMR: inversion-recovery T1 and steady-state saturation transfer (intermolecular NOE) from naphthalene source in CDCl3; settings: for normalized cross-relaxation rate σ: from thermal saturation measurements, naphthalene source; for steady-state intermolecular NOE enhancement ε: steady-state saturation transfer from naphthalene; for T1 relaxation time: thermal, in CDCl3 with concentrated naphthalene-h8
[2] = Polarization transfer via intermolecular NOE from optically polarized pentacene:naphthalene dissolved in CDCl3, 1.45 T benchtop NMR

SMILES: ClC(Cl)C(Cl)Cl [TCE, 1,1,2,2-tetrachloroethane]
- normalized cross-relaxation rate σ [1]: (5.6±0.6)*10^−3 1/s
- steady-state intermolecular NOE enhancement ε [1]: 1.20±0.02
- T1 relaxation time [1]: 35.6 s

SMILES: CC(C)=O [acetone]
- normalized cross-relaxation rate σ [1]: (3.7±1.5)*10^−3 1/s
- steady-state intermolecular NOE enhancement ε [1]: 1.05±0.02
- T1 relaxation time [1]: 13.5 s

SMILES: c1ccc2ccccc2c1 [naphthalene]
- T1 relaxation time [1]: greater than 10 s

SMILES: C#CCOC(C)=O [propargyl acetate]
- 1H T1 relaxation time, CH2 resonance [2]: approximately 10 seconds
- 1H T1 relaxation time, CH3 resonance [2]: approximately 10 seconds
- 1H T1 relaxation time, CH protons [2]: about 60 s
- polarization corresponding to enhancement (summary) ([2]; 1.45 T): ≥ 0.86%
- maximum signal enhancement, CH2 resonance ([2]; 1.45 T, FIG. 18A): −250±10
- maximum signal enhancement, CH3 resonance ([2]; 1.45 T, FIG. 18A): −360±10
- polarization corresponding to highest enhancement ([2]; 1.45 T, FIG. 18A): −1%
- maximum signal enhancement, CH2 resonance ([2]; 1.45 T, FIG. 18B): approximately 260±10
- maximum signal enhancement, CH3 resonance ([2]; 1.45 T, FIG. 18B): ~380±10
- polarization corresponding to highest enhancement ([2]; 1.45 T, FIG. 18B): approximately 1%
- highest signal enhancement (CH protons) ([2]; 1.45 T, buildup curves probed by 1 degree flip angles (FIG. 18A), 20% v/v naphthalene, 300 mM in CDCl3): −1730±60
- highest signal enhancement (CH protons) ([2]; 1.45 T, hyperpolarized spectrum vs averaged 90-degree thermal spectrum (FIG. 18B), buildup 35 to 40 seconds): 1820±60
